According to PubChem BioAssay AID540275 (National Center for Advancing Translational Sciences (NCATS), 2011):
Among all 320,000 compounds or so, about 620 (0.19%) were called active. Inconclusive means that the source gave no clear call. Such entries were picked first, then a sample of the others. Cut-off read from the data, not from the text of the source: active = activation above about 80%; inconclusive = between about 30% and that limit; inactive = weaker than that.

By UniProt entry, the sequences of proteins in these tests, tags left out.
UniProt Q8NER1, whole entry, looked up: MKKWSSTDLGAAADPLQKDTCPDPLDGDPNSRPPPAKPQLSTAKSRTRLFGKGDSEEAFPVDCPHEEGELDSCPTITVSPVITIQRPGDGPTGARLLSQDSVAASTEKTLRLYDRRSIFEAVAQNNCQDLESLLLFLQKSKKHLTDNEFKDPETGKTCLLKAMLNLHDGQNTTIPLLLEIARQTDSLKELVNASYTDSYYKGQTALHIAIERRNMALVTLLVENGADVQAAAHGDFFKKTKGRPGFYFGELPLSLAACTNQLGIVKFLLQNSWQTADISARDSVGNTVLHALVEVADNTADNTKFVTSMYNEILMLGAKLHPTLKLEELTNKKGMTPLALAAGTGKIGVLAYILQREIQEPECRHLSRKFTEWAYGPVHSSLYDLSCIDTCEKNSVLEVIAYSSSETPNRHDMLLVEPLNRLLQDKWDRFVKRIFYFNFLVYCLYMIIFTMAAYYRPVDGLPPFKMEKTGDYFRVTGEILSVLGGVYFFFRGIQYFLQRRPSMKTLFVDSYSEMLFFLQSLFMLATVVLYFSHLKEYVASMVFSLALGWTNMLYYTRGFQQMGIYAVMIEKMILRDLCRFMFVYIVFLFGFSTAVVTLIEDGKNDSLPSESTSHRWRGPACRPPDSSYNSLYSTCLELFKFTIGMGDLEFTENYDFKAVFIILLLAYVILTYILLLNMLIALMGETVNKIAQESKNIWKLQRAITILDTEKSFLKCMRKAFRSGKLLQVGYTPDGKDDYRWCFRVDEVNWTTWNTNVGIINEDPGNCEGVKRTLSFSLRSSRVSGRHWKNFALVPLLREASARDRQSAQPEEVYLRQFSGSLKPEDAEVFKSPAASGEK

Biological target: Transient receptor potential cation channel subfamily V member 1 (Homo sapiens) (UniProt Q8NER1)
Assay: HTS Assay for Compounds that Act as Agonists of the Vanilloid Receptor 1; note: 0% is about no effect
Conditions: TRPV1-expressing cells, Fluo-8 calcium influx, agonist mode; at 8.33 µM, stronger effect = higher value
In short: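 Cells expressing TRPV1 were dye-loaded with Fluo-8 and read kinetically: 10 s baseline, 3 min after compound (agonist portion), then 2 min after EC20 capsaicin (allosteric enhancer portion). Calcium-bound dye fluorescence at 480/520 nm.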

Compound	activation
Cc1ccc(S(=O)(=O)CNC(=S)c2ccc3ccccc3c2)cc1	inactive: 15.2%
CCOc1ccc(NC(=O)Nc2ccccc2SC)cc1	inconclusive: 38.4%
O=C(COC(=O)C1COc2ccccc2O1)Nc1ccc(Cl)cc1 (configuration not stated)	inactive: 21.3%
COc1ccc(C(=O)NC2CCCc3ccccc32)cc1OC1CCN(C(C)=O)CC1 (configuration not stated)	inactive: 0.943%
CCOc1cc(/C=N/n2cnnc2)cc(Br)c1O	inactive: -2.65%
Cc1cc(=O)n(CCCc2ccccc2)[nH]1	inconclusive: 72.8%
Oc1ccccc1/C=N/Nc1nc2ccccc2o1	inconclusive: 40.6%
O=C(O)c1ccccc1N=Nc1c(O)[nH]c2ccc([N+](=O)[O-])cc12	inactive: 2.5%
COc1cccc(CNC(=O)c2ccc(S(=O)(=O)N3CCCC3)cc2)c1	inconclusive: 33.9%
CCCc1nc2ccccc2c(C(=O)OCC(=O)NCc2ccco2)c1CC	inconclusive: 50.4%
COc1ccc(-c2noc(N3CCC(C(=O)Nc4ccc(F)cc4F)CC3)n2)cc1	inconclusive: 58.5%
COc1ccccc1NC(=O)Cc1ccc(-c2ccccc2)cc1	inactive: 2.11%
CN(C)c1ccc(N=Nc2ccccc2C(=O)OCC(=O)NC2CCCC2)cc1	inconclusive: 44%
C#CC(C)(C)NC(=O)c1ccc(-c2ccccc2F)cc1	inconclusive: 47%
CCC(C(=O)OCc1csc(CC(=O)Nc2ccccc2C)n1)c1ccccc1 (configuration not stated)	inconclusive: 30.5%
CS(=O)(=O)N1CCC(C(=O)Nc2ccc(Cl)c(Cl)c2)CC1	inconclusive: 33.2%
Cc1ccc(C)c(NC(=O)CN(C)C(=O)c2ccccc2OCc2ccc(Cl)cc2)c1	inconclusive: 47.6%
O=C(CCCc1cccs1)Nc1nc2c(s1)CCCC2	inconclusive: 35.2%
CCCCCSc1nc(N2CCOCC2)c2c(c1C#N)CC(C)(C)OC2	inconclusive: 39.6%
Cc1nc(-c2ccc(S(=O)(=O)NCc3ccccn3)s2)cs1	inactive: 10.2%
CN(C)S(=O)(=O)N1CCC(Oc2cccc(C(=O)NC3CCCCC3)c2)CC1	inactive: 7.5%
O=C(Nc1ccc(F)cc1)c1cc2c(s1)CCCC2	active: 87.7%
CCC/C=N/NC(=O)c1ccccc1O	inconclusive: 30.5%

Compound	activation
O=C(NCCOC(=O)c1ccccc1)c1ccc([N+](=O)[O-])cc1	inconclusive: 30.5%
CCC(=O)OCCNc1cc(SCCC(=O)OC)c2nonc2c1[N+](=O)[O-]	inactive: -1.2%
CCOC(=O)c1cccc(NC(=O)c2cc3sccc3n2C)c1	inactive: -0.136%
NC(=O)c1ccc(NC(=O)COC(=O)C2(c3cccc(F)c3)CCCC2)cc1	inconclusive: 52%
O=C(CCC1CCCC1)NNC(=O)c1cccc(Cl)c1	inconclusive: 33.6%
COc1ccc(NC(=O)CN(C)C(=O)c2oc3c(ccc4ccccc43)c2C)cc1	inconclusive: 32.8%
Cc1ccc(SCCNC(=O)c2ccccc2F)cc1	active: 80.1%
O=c1[nH]sc2ccccc12	inactive: 3.98%
Cc1ccc(NC(=O)C(Cc2ccccc2)NC(=O)OCc2ccccc2)cc1C (configuration not stated)	inconclusive: 34.3%
CC(C)CC(NC(=O)c1ccco1)C(=O)Nc1ccc2c(c1)OCCO2 (configuration not stated)	inconclusive: 32.6%
CNc1nc(-c2ccccc2)cc(-c2ccccc2)n1	inconclusive: 47.1%
CCn1nc(NC(=O)c2ccccn2)c2cc3cccc(C)c3nc21	inconclusive: 32.2%
CCN(c1ccc(NC(=O)COC(=O)CCC(=O)c2ccc(F)cc2)cc1)C(C)C	inconclusive: 37.4%
Cc1ccc2nc(-c3cccc(Br)c3)cc(C(=O)NC3=NCCS3)c2c1	inconclusive: 68.9%
CCOC(=O)c1cccc(C2=CC(=O)C[C@H](c3ccc(Cl)cc3)C2)c1	inconclusive: 40.1%
O=C(c1ccc(-c2ccc(Cl)cc2Cl)o1)N1CCOCC1	inconclusive: 63.7%
CCCn1nc(NC(=O)c2ccco2)c2cc3cc(C)ccc3nc21	inconclusive: 67.7%
Cn1cc(Cl)c(C(=O)Nc2nc3ccc(Cl)cc3s2)n1	inconclusive: 43.1%
CC12CC3(C)CC(C)(C1)CC(C(=O)NCCc1ccc(S(N)(=O)=O)cc1)(C2)C3	inconclusive: 77.6%
Cc1ccc(NC(=O)c2cc(S(=O)(=O)N3CCOCC3)c(Br)s2)cc1	inconclusive: 63.2%
CCOC(=O)Cc1csc(NC(=O)COc2ccc(C)c(C)c2)n1	inconclusive: 65.1%
O=C(O)CSc1nnc(-c2cc3ccccc3o2)n1-c1ccccc1	inactive: 0.786%
O=C(NCc1cc([N+](=O)[O-])ccc1O)c1cc(-c2ccncc2)nc2ccccc12	inactive: -0.394%

Seven entries from above in a different format:
Compound | activation
O=C(CCC1CCCC1)NNC(=O)c1cccc(Cl)c1 | inconclusive: 33.6%
COc1ccc(NC(=O)CN(C)C(=O)c2oc3c(ccc4ccccc43)c2C)cc1 | inconclusive: 32.8%
Cc1ccc(SCCNC(=O)c2ccccc2F)cc1 | active: 80.1%
O=c1[nH]sc2ccccc12 | inactive: 3.98%
Cc1ccc(NC(=O)C(Cc2ccccc2)NC(=O)OCc2ccccc2)cc1C (configuration not stated) | inconclusive: 34.3%
CC(C)CC(NC(=O)c1ccco1)C(=O)Nc1ccc2c(c1)OCCO2 (configuration not stated) | inconclusive: 32.6%
CNc1nc(-c2ccccc2)cc(-c2ccccc2)n1 | inconclusive: 47.1%

The results go on:

Compound	activation
COc1ccc(-c2nc3ncccn3c2Nc2ccccc2)cc1	inconclusive: 30.6%
N#CNC(=Nc1cccc(C(F)(F)F)c1)SCc1ccc(C(=O)O)cc1	inactive: 1.65%
O=C(c1cc2ccccc2o1)N(C1CC1)C1(C(=O)Nc2ccccc2)CCCC1	inconclusive: 58.3%
Cc1ccc(C)c(C(=O)COC(=O)CN2C(=O)C3C4CCC(C4)C3C2=O)c1 (configuration not stated)	inactive: 15.6%
Cc1cccc(NC(=O)NNC(=O)c2cc3occc3[nH]2)c1C	inactive: -2.66%
COc1ccc(O)c(/C=C2/SC(=S)N(Cc3ccccc3)C2=O)c1	inactive: 18%
CC1(C)CC(=O)C=C(c2cccc3c2Oc2ccccc2S3)C1	inconclusive: 42.2%
Cc1ccc(C(=O)Nc2ccc(S(=O)(=O)N3CCCC3)cc2)s1	inconclusive: 70.3%
CCCCNC(=S)N(CCN(CC)CC)Cc1cc2cc3c(cc2[nH]c1=O)OCO3	inconclusive: 54.1%
CCCOC(=O)C1=C(C)NC2=C(C(=O)CCC2)C1c1cccc(OC)c1OC (configuration not stated)	inactive: 2.65%
COc1ccc(C(=O)C2CCCN(C(=O)c3noc4c3CCCC4)C2)c(C)c1 (configuration not stated)	inconclusive: 52.3%
CCN1CCN(CCCNC(=O)c2ccccc2NC(=O)C2=C(C)OCCS2)CC1	inactive: -2.41%
O=C(c1cc(COc2ccc(F)cc2Cl)on1)N1CCc2sccc2C1	inconclusive: 43.8%
O=C(Nc1ccc(F)cc1F)c1csc(-c2ccccc2)n1	inconclusive: 49.7%
CC(C)(C)c1ccc(C(=O)O/N=C(\N)c2ccccc2)cc1	inconclusive: 65.8%
CC1CCCCN1c1nc(-c2ccncc2)nc2ccccc12 (configuration not stated)	inconclusive: 30.3%
CCCCNC(=O)Nc1ccc(C2SCCS2)cc1	inconclusive: 71.5%
COc1ccccc1CNC(=O)c1cc(C)nn1-c1ccccc1	inactive: 2.52%
CCCOc1ccc(/C=N/NC(=O)c2ccc3c(c2)OCO3)c(OCCC)c1	inconclusive: 47.3%
Oc1c(C=Nc2ccc(Cl)cn2)sc2ccccc12	inactive: 7.48%
C=CCOc1c(Cl)cc(C(=S)N2CCCC2)cc1OCC	inactive: 19.7%
CCOC(=O)c1ccc(NC(=O)N2CCN(CCc3ccccc3)CC2)cc1	inconclusive: 46.3%
CC1Nc2ncnc(N3CCc4ccccc4C3)c2N(Cc2ccc(Cl)cc2)C1=O (configuration not stated)	inconclusive: 45.7%

Some of the entries so far, field by field:
CCN1CCN(CCCNC(=O)c2ccccc2NC(=O)C2=C(C)OCCS2)CC1
  activation: inactive: -2.41%
O=C(c1cc(COc2ccc(F)cc2Cl)on1)N1CCc2sccc2C1
  activation: inconclusive: 43.8%

More results

Compound	activation
O=C(Nc1ccc(N2CCCC2)c(Cl)c1)c1ccc([N+](=O)[O-])o1	inactive: -15.5%
COc1cccc(C(=O)OCC(=O)c2[nH]c(C)c(C(C)=O)c2C)c1	inconclusive: 30.6%
COc1ccc(C(=O)Nc2ccc(C)c(S(=O)(=O)N3CCCCCC3)c2)cc1	inconclusive: 48.7%
Cc1cc(C#N)c(C)n1-c1cc(C(F)(F)F)ccc1N1CCOCC1	inconclusive: 31%
Cn1c(C(=O)N2CCCC(C(=O)NCc3cccs3)C2)cc2sccc21 (configuration not stated)	inconclusive: 45.8%
CCOCCCNC(=O)CN1C(=O)/C(=C/c2ccccc2)Sc2ccccc21	inconclusive: 34.9%
O=C(Nc1csc([N+](=O)[O-])c1)Nc1c(Cl)cccc1Cl	inconclusive: 55.9%
Cc1ccc(C(C(=O)NC2CCCC2)N(Cc2cccs2)C(=O)CNC(=O)c2cccs2)o1 (configuration not stated)	inconclusive: 44.9%
O=C(Nc1ccc(Cl)c(S(=O)(=O)N2CCCCC2)c1)c1cnccn1	inconclusive: 55.3%
O=C1C2C3C=CC(C4CC34)C2C(=O)N1c1ccc2c(c1)OCO2 (configuration not stated)	inactive: 1.1%
Cc1cc(C(=O)COC(=O)c2ccc(O)cc2O)c(C)n1-c1ccccc1	inconclusive: 64.3%
Cc1oc2ccc(OCC(N)=O)cc2c1C(=O)OC(C)C	inconclusive: 36.2%
Cc1ccc(Cl)cc1N(Cc1ccc(C(=O)NCc2cccnc2)cc1)S(=O)(=O)c1ccccc1	inconclusive: 49.2%
Cc1ccc([N+](=O)[O-])c(C(=O)N/N=C/c2cccs2)c1	active: 83%
CCOc1ccc(/C=C/C(=O)c2ccccc2)cc1	inconclusive: 48.8%
CC1CCN(C(=O)c2cc3ccccc3o2)CC1	inconclusive: 42.4%
CC1c2ccccc2SC(CCCN(C)C)c2ccccc21 (configuration not stated)	inactive: 8.68%
Cc1ccc(C(=O)NCCSC(C)(C)C)cc1[N+](=O)[O-]	inconclusive: 44.1%
CC(C)Cc1ccc(CN2CCCC(NC(=O)c3nn(C)c(=O)c4ccccc34)C2)cc1 (configuration not stated)	inconclusive: 48.5%
COC(CNC(=O)CNC(=S)N(Cc1ccccc1)Cc1cccnc1)OC	inactive: -3.34%
Cc1ccc(CC(=O)N2CCN(c3cccc(C(F)(F)F)c3)CC2)cc1	inconclusive: 45.7%
COc1ccc(CNC(=O)C2CCCN(c3ncnc4c3nc3n4CCCCC3)C2)cc1 (configuration not stated)	inconclusive: 38.2%
Cc1ccccc1-n1c(=O)cc(N2CCc3ccccc32)[nH]c1=O	inactive: -1.88%
